In patent EP2929785A1, “A PLA inhibitor for inhibition of fat absorption” (PAT GmbH, priority 2014, dated 2015):
Results are given in words; binding and its absence hold for the method and conditions named. For some assays here: Binding seen in cells or lysates may run through a third protein. Some entries that bind do so weakly or less than the wild type.

Protein sequences, listed by entry. Tags and fused reporters are not part of them. Residues count along the entry.
UniProt Q03135, residues 2-178: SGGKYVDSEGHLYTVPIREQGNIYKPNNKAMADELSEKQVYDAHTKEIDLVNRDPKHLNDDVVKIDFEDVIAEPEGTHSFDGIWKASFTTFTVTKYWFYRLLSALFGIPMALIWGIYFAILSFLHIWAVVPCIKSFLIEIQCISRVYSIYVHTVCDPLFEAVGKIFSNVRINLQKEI
UniProt P16671, residues 2-472: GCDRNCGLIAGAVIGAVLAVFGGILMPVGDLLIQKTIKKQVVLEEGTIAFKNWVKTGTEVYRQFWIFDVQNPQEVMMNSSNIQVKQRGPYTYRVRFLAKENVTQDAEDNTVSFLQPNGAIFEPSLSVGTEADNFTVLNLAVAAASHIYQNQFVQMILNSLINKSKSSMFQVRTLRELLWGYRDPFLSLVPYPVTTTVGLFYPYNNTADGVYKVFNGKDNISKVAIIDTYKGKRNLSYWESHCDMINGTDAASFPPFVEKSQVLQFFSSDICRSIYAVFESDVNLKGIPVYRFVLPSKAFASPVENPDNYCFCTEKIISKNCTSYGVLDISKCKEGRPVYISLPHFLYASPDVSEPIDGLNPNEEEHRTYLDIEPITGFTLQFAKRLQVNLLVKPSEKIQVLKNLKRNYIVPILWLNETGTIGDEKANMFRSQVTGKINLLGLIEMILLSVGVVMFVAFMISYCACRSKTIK

Columns and labels:
caveolin-1 (human) [1] = target: caveolin-1 (human) (UniProt Q03135); assay: co-immunoprecipitation from HepG2 DRM-PM, western blot
[2] = target: T1, plasma membrane fatty acid-binding protein (FABPPM) (human) (UniProt P00505); assay: as above
T1 sequence (looked up): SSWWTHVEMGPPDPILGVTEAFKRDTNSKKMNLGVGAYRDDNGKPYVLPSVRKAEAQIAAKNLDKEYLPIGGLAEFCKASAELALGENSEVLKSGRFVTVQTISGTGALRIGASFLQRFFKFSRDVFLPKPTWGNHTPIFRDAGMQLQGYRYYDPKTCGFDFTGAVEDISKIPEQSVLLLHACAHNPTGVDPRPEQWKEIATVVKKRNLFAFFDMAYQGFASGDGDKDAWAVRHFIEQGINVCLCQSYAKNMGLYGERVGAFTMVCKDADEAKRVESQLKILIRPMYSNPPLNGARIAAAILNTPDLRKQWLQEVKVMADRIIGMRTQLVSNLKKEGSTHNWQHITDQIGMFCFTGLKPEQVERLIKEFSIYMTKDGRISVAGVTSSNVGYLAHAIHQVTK

caveolin-1 (human) [3] = target: caveolin-1 (human) (UniProt Q03135); assay: co-immunoprecipitation from HepG2 DRM-PM, western blot (legend of Figure 3)
[4] = target: T1, plasma membrane fatty acid-binding protein (FABPPM) (human); assay: as above
caveolin-1 (human) [5] = target: caveolin-1 (human) (UniProt Q03135); assay: co-immunoprecipitation from CaCo2 DRM plasma membrane domains, western blot
[6] = target: T1, plasma membrane fatty acid-binding protein (FABPPM) (human); assay: as above
[7] = target: CD36 (Cluster of Differentiation 36) (human) (UniProt P16671); assay: co-immunoprecipitation from HepG2 DRM-PM, western blot
caveolin-1 (human) [8] = target: caveolin-1 (human) (UniProt Q03135); assay: as above; remark: listed apart in the source
[9] = target: T1, plasma membrane fatty acid-binding protein (FABPPM) (human); assay: as above; remark: listed apart in the source
[10] = target: CD36 (Cluster of Differentiation 36) (human) (UniProt P16671); assay: co-immunoprecipitation from HepG2 DRM-PM, western blot (legend of Figure 3)
[11] = target: CD36 (Cluster of Differentiation 36) (human) (UniProt P16671); assay: co-immunoprecipitation from CaCo2 DRM plasma membrane domains, western blot
[12] = target: CD36 (Cluster of Differentiation 36) (human) (UniProt P16671); assay: time-dependent complex disassembly after UDCA-LPE, immunoprecipitation of HepG2 DRM-PM and western blot (Fig. 5)
[13] = target: T2, calcium-independent membrane phospholipase A2 (iPLA2ß) (human) (UniProt O60733); assay: co-immunoprecipitation from HepG2 DRM-PM, western blot
T2 sequence (looked up): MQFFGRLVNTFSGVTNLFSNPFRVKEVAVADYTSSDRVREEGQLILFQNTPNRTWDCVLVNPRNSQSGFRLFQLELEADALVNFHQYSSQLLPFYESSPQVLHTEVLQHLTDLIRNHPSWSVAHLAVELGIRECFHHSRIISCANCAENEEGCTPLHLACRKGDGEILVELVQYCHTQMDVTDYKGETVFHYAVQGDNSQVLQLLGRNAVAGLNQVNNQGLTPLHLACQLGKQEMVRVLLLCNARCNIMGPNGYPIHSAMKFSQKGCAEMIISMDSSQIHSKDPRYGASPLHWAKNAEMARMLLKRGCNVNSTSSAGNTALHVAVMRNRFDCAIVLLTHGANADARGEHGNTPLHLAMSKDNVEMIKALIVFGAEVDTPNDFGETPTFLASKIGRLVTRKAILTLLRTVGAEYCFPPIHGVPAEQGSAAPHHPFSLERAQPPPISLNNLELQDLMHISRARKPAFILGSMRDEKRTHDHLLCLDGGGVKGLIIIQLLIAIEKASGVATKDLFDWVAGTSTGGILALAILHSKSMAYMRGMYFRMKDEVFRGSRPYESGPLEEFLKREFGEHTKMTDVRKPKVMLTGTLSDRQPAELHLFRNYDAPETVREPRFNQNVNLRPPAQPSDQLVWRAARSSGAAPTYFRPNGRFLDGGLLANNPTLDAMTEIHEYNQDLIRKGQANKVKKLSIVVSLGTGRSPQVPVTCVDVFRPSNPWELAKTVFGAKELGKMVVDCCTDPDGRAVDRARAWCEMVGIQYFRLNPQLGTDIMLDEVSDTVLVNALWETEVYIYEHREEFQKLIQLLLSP

Measured: binding

CD36 (Cluster of Differentiation 36) (from UniProt P16671 2-472) (receptor)
binds: caveolin-1 (human) [1] | [2] | caveolin-1 (human) [3] | [4] | caveolin-1 (human) [5] | [6]

B1: calcium-independent membrane phospholipase A2 (iPLA2ß) (enzyme, human, UniProt O60733 1-806, looked up)
chain: T2 sequence (looked up)
binds: [7] | caveolin-1 (human) [8] | [9] | [10] | caveolin-1 (human) [3] | [4] | [11] | caveolin-1 (human) [5] | [6] | [12]

B2: plasma membrane fatty acid-binding protein (FABPPM) (protein, human, UniProt P00505 30-430, looked up)
chain: T1 sequence (looked up)
binds: caveolin-1 (human) [8] | caveolin-1 (human) [3] | caveolin-1 (human) [5]

B3: flotilin1 (protein, human, UniProt O75955 1-427, looked up)
chain: MFFTCGPNEAMVVSGFCRSPPVMVAGGRVFVLPCIQQIQRISLNTLTLNVKSEKVYTRHGVPISVTGIAQVKIQGQNKEMLAAACQMFLGKTEAEIAHIALETLEGHQRAIMAHMTVEEIYKDRQKFSEQVFKVASSDLVNMGISVVSYTLKDIHDDQDYLHSLGKARTAQVQKDARIGEAEAKRDAGIREAKAKQEKVSAQYLSEIEMAKAQRDYELKKAAYDIEVNTRRAQADLAYQLQVAKTKQQIEEQRVQVQVVERAQQVAVQEQEIARREKELEARVRKPAEAERYKLERLAEAEKSQLIMQAEAEAASVRMRGEAEAFAIGARARAEAEQMAKKAEAFQLYQEAAQLDMLLEKLPQVAEEISGPLTSANKITLVSSGSGTMGAAKVTGEVLDILTRLPESVERLTGVSISQVNHKPLRTA
binds: [7] | [13] | caveolin-1 (human) [8] | [9]
